Reference: patent US8536221B2, “Amide derivatives as positive allosteric modulators and methods of use thereof” (AbbVie Inc., priority 2008, dated 2013)
At least one compound was matched to its structure with a doubt left.

Test system: formalin-induced nociceptive behavior in mice
Assay: Formalin-induced persistent nociceptive behavior assay
Type: in vivo
Conditions: 0-5 minutes post formalin injection, 10 mg/kg subcutaneously 10 minutes prior to formalin, versus vehicle
Description: FIG. 3 is a graphical representation of nocifensive response (licking duration) following treatment with vehicle or a PAM (Example 6) followed by exposure to formalin in mice. […] In Phase II (20-45 minutes post formalin injection) a significant reduction (55%) in licking behavior was observed, indicative of pain relief in this time period.
(iv) Formalin-Induced Persistent Nociceptive Behavior Assay
Nociception was assessed using the formalin test. The mice were placed in open plexiglass observation chambers for 30 minutes to allow them to acclimate to their surroundings; then they were removed for formalin administration. Mice were gently restrained while the dorsum of the hind paw was injected with 20 μL of 2.5% formalin into the plantar surface of the right hind paw with a 30-gauge needle. The animals were returned to the chambers and nociceptive behavior was observed immediately after formalin injection. Mirrors were placed in each chamber to enable unhindered observation. Nociceptive behavior was quantified as the time licking the injected paw for continuous 5 minutes (phase I) and 20-45 minutes (phase II), following formalin injection. Formalin-induced flinching/licking behavior was biphasic. The initial acute phase (phase I, 0-5 minutes) was followed by a relatively short quiescent period, which was then followed by a prolonged tonic response (phase II, 20-45 minutes).

O=C(NCc1ccc2[nH]ccc2c1)c1ccc(OCC(F)(F)F)nc1 [Example 6, N-(1H-indol-5-ylmethyl)-6-(2,2,2-trifluoroethoxy)nicotinamide]
nocifensive response (licking duration), Phase I: no significant difference
nocifensive response (licking duration), Phase I (listed as N-(1H-indol-5-ylmethyl)-6-(2,2,2-trifluoroethoxy)nicotinamide): no anti-nociceptive activity
